Experimental data published in the supplement of paper PMC6078165.
Values are relative to the signal before dosing, not to a vehicle control; the signal also falls without drug.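 Labels refer to human fibroblasts, largely primary: uterine (C12385, HUF), lung (H6013), bone (Hs27A), adrenal (HADF), skin (WS1), plus mammary HMF and breast cancer-associated Hs343T. Cancer lines are basal-like or mesenchymal-like triple-negative breast cancer. The paper counts as hits responses shifting over 3x the replicate standard deviation. The tissue of the other fibroblasts is not given here.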

Tested on: Hs578T
Assay: relative JC-1 red fluorescence (viability) vs pre-drug, coculture with fibroblast (fraction); higher = more viable cancer cells
Method: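 JC-1 labelled TNBC cells cocultured 1:1 (1,500 cells each) with CellTrace Violet stained primary or stromal fibroblasts in 384-well plates in FluoroBrite medium, treated with one of 42 anticancer drugs at 0.1, 1, 10 or 100 uM. JC-1 red fluorescence (mitochondrial integrity in cancer cells only) was read by plate reader every 8 h for 72 h. Values are normalised to each well's pre-drug value. The stock of one drug was tenfold lower, so its dose labels may be too high.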

CS(=O)(=O)CCNCc1ccc(-c2ccc3ncnc(Nc4ccc(OCc5cccc(F)c5)c(Cl)c4)c3c2)o1 [Lapatinib]
relative JC-1 red fluorescence
Conditions | 8 h | 16 h | 24 h | 32 h | 40 h | 48 h | 56 h | 64 h | 72 h
10 µM | 0.892 | 0.923 | 0.92 | 0.885 | 0.846 | 0.839 | 0.847 | 0.825 | 0.842
100 µM | 0.874 | 0.8099 | 0.8049 | 0.792 | 0.758 | 0.729 | 0.744 | 0.704 | 0.708

relative JC-1 red fluorescence
Conditions | 8 h | 16 h | 24 h | 32 h | 40 h | 48 h | 56 h | 64 h | 72 h
10 µM, coculture fibroblast: C12385 | 0.817 | 0.738 | 0.685 | 0.644 | 0.616 | 0.603 | 0.604 | 0.614 | 0.633
10 µM, coculture fibroblast: H6013 | 0.821 | 0.75799 | 0.727 | 0.739 | 0.73 | 0.737 | 0.752 | 0.769 | 0.776
10 µM, coculture fibroblast: H6019 | 0.814 | 0.781 | 0.777 | 0.7423 | 0.7908 | 0.833 | 0.872 | 0.871 | 0.866
10 µM, coculture fibroblast: H6076 | 0.932 | 0.956 | 0.938 | 0.916 | 0.898 | 0.912 | 0.891 | 0.891 | 0.878
10 µM, coculture fibroblast: H6231 | 0.86 | 0.96 | 0.926 | 0.869 | 0.849 | 0.85 | 0.827 | 0.816 | 0.797
10 µM, coculture fibroblast: HADF | 0.7856 | 0.6901 | 0.63 | 0.602 | 0.578 | 0.563 | 0.557 | 0.543 | 0.522
10 µM, coculture fibroblast: HCFa | 0.8683 | 0.8243 | 0.7474 | 0.698 | 0.666 | 0.659 | 0.678 | 0.723 | 0.776
10 µM, coculture fibroblast: HCPF | 0.875 | 0.9674 | 0.927 | 0.898 | 0.8609 | 0.8536 | 0.8551 | 0.822 | 0.8269
10 µM, coculture fibroblast: HHSteC | 0.8452 | 0.756 | 0.737 | 0.752 | 0.745 | 0.7404 | 0.754 | 0.764 | 0.78
10 µM, coculture fibroblast: HMF | 0.827 | 0.842 | 0.941 | 0.931 | 0.894 | 0.882 | 0.849 | 0.846 | 0.827
10 µM, coculture fibroblast: HPFa | 0.8345 | 0.7101 | 0.663 | 0.642 | 0.6428 | 0.6557 | 0.709 | 0.763 | 0.774
10 µM, coculture fibroblast: HUF | 0.921 | 0.869 | 0.826 | 0.74 | 0.707 | 0.708 | 0.739 | 0.795 | 0.84
10 µM, coculture fibroblast: Hs27A | 0.815 | 0.735 | 0.681 | 0.64 | 0.601 | 0.581 | 0.593 | 0.639 | 0.654
10 µM, coculture fibroblast: Hs343T | 0.886 | 0.929 | 0.9099 | 0.895 | 0.8475 | 0.8391 | 0.81219 | 0.801 | 0.794
10 µM, coculture fibroblast: WS1 | 0.823 | 0.7333 | 0.657 | 0.621 | 0.593 | 0.6 | 0.586 | 0.5885 | 0.5941
100 µM, coculture fibroblast: C12385 | 0.8407 | 0.743 | 0.734 | 0.657 | 0.614 | 0.587 | 0.56 | 0.546 | 0.536
100 µM, coculture fibroblast: H6013 | 0.9033 | 0.8596 | 0.81878 | 0.787 | 0.7369 | 0.715 | 0.674 | 0.651 | 0.611
100 µM, coculture fibroblast: H6019 | 0.827 | 0.761 | 0.76 | 0.684 | 0.658 | 0.631 | 0.609 | 0.591 | 0.562
100 µM, coculture fibroblast: H6076 | 0.945 | 0.9 | 0.903 | 0.91 | 0.893 | 0.908 | 0.874 | 0.87 | 0.859
100 µM, coculture fibroblast: H6231 | 0.922 | 0.866 | 0.858 | 0.826 | 0.786 | 0.784 | 0.753 | 0.728 | 0.713
100 µM, coculture fibroblast: HADF | 0.97 | 0.791 | 0.951 | 0.922 | 0.952 | 0.922 | 0.88 | 0.8573 | 0.8126
100 µM, coculture fibroblast: HCFa | 0.864 | 0.823 | 0.781 | 0.7385 | 0.684 | 0.659 | 0.626 | 0.6115 | 0.57596
100 µM, coculture fibroblast: HCPF | 0.938 | 0.849 | 0.816 | 0.78415 | 0.723 | 0.707 | 0.694 | 0.652 | 0.627
100 µM, coculture fibroblast: HHSteC | 0.897 | 0.814 | 0.769 | 0.735 | 0.679 | 0.654 | 0.62 | 0.6016 | 0.573
100 µM, coculture fibroblast: HMF | 0.841 | 0.842 | 0.773 | 0.759 | 0.78 | 0.759 | 0.764 | 0.686 | 0.717
100 µM, coculture fibroblast: HPFa | 0.967 | 0.89842 | 0.861 | 0.81 | 0.774 | 0.743 | 0.702 | 0.675 | 0.625
100 µM, coculture fibroblast: HUF | 0.921 | 0.828 | 0.797 | 0.698 | 0.641 | 0.606 | 0.572 | 0.56 | 0.539
100 µM, coculture fibroblast: Hs27A | 0.882 | 0.957 | 0.897 | 0.891 | 0.907 | 0.844 | 0.756 | 0.7957 | 0.769
100 µM, coculture fibroblast: Hs343T | 0.953 | 0.904 | 0.901 | 0.895 | 0.842 | 0.823 | 0.794 | 0.748 | 0.736
100 µM, coculture fibroblast: WS1 | 0.782 | 0.753 | 0.741 | 0.662 | 0.622 | 0.614 | 0.589 | 0.578 | 0.566
